{"sequences": {"note": "Protein sequences, listed by entry. Tags and fused reporters are not part of them. Residues count along the entry.", "UniProt Q9NYJ7, residues 27-618": "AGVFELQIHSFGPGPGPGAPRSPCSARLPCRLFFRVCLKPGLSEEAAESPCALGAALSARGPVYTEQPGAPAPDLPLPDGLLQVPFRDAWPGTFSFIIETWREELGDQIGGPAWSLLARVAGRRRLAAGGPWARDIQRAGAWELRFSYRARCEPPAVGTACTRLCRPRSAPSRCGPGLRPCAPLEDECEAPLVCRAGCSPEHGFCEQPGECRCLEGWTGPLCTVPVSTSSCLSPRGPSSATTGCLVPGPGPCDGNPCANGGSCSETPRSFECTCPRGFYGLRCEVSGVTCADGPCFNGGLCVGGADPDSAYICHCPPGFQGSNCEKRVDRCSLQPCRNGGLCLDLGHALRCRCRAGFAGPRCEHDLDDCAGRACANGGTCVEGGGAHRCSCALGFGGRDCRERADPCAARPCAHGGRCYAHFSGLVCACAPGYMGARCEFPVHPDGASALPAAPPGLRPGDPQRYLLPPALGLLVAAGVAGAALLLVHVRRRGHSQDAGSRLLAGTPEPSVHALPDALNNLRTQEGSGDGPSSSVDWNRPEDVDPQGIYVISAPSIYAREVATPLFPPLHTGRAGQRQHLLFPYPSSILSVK"}, "source": "patent US20240425611A1", "binders": {"B1": {"name": "DLL3.2 (antibody, V domains shown)", "VH": "QVQLVQSGAEVKKPGASVKVSCKATDYIFSNYYIEWVRQAPGQGLEWMGEILPGTGNTVYNEKFKDRVTMTVDTSTSTVYMELSSLRSEDTAVYYCARWGDYALFANWGQGTLVTVSS", "VL": "DIQMTQSPSTLSASVGDRVTITCKASQNVGTNVAWYQQKPGKAPKALIYSASYRYSGVPSRFSGSGSGTEFTLTISSLQPDDFATYYCQQYNSYPFTFGQGTKLEIK"}, "B2": {"name": "DLL3.3 (antibody, V domains shown)", "VH": "QVQLVQSGAEVKKPGASVKVSCKASGYTFTDYFMNWVRQAPGQGLEWMGVINPYNDITIYNQKFQGRVTMTVDRSTSTVYMELSSLRSEDTAVYYCAREGVLYDGYYEGAYWGQGTLVTVSS", "VL": "DIQLTQSPSFLSASVGDRVTITCKASQNVGIAVAWYQQKPGKAPKLLIYAASNRYTGVPSRFSGSGSGTEFTLTISSLQPEDFATYYCQQYSTYPYTFGQGTKLEIK"}, "B3": {"name": "DLL3.4 (antibody, V domains shown)", "VH": "B1 VH", "VL": "B1 VL with T10F, A46P, A51T, D81E, S93N, F96L, Q100G, L104V"}}, "note": "Changes are numbered by the printed parent chain. No constants are given. Whether binding was seen depends on the method and setting. Some entries that bind do so weakly or less than the wild type."}
{"biological_target": "human DLL3 over-expressed on CHO-K1 cells (human) (UniProt Q9NYJ7)", "assay": "flow cytometry on CHO-K1 cells over-expressing human DLL3 (FIG. 2A)"}
{"binder": "B1", "binding": "binds"}
{"binder": "B2", "binding": "binds"}
{"binder": "B3", "binding": "binds"}
{"biological_target": "human DLL3 over-expressed on CHO-K1 cells (human) (UniProt Q9NYJ7)", "assay": "flow cytometry on CHO-K1 cells over-expressing human DLL3, PE anti-human IgG Fc"}
{"binder": "B1", "binding": "binds"}
{"binder": "B2", "binding": "binds"}
{"binder": "B3", "binding": "binds"}
